Publication PMC12140329
These are yes or no findings as the source states them, for the method shown. Binding seen in cells or lysates may run through a third protein. Some entries that bind do so weakly or less than the wild type. For some assays here: Where a sequence is shown, tags or fusion partners need not be part of it.

Chains of the proteins cited; added tags and fusions are not shown.
UniProt Q9P258: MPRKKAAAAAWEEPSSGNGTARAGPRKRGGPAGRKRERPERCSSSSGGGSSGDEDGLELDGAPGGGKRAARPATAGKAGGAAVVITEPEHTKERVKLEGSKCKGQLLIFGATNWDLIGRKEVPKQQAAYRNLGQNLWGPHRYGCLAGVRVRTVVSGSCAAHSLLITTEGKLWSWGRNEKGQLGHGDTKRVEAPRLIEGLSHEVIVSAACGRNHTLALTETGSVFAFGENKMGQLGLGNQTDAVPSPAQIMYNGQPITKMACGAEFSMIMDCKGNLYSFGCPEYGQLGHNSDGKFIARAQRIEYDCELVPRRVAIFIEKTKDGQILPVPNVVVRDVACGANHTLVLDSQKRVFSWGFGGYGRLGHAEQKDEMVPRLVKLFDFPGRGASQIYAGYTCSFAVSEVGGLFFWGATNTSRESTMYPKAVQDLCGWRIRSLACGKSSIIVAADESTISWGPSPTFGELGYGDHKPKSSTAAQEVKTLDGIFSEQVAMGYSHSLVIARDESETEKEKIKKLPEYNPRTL
UniProt Q92830: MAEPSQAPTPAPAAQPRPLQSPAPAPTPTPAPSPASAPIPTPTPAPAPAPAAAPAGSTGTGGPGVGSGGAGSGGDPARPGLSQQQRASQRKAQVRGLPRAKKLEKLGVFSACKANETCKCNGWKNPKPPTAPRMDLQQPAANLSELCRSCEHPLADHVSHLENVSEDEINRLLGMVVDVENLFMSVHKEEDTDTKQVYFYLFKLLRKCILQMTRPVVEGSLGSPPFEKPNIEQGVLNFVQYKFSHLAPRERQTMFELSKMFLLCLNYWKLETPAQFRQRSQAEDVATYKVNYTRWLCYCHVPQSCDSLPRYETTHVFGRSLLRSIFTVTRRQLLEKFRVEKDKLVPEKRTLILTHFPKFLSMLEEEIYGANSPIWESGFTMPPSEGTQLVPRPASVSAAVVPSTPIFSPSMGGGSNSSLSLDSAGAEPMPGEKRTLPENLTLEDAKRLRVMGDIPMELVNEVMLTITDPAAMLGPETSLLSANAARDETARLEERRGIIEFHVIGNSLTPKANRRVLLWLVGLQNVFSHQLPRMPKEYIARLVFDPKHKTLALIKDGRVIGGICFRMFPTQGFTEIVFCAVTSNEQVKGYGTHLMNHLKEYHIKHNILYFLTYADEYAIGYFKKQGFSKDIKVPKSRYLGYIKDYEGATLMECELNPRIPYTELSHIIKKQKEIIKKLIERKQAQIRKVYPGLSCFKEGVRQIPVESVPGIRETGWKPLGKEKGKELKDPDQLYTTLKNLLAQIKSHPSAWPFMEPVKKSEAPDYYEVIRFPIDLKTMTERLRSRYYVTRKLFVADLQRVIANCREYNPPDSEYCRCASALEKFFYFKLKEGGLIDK

Key:
[1] = target: T1, Flag-SERBP1 (full-length, exogenous) (UniProt Q8NC51); assay: co-IP; exogenous co-IP of transfected proteins; lysate in Co-IP buffer, overnight at 4 °C with specific antibodies and protein A/G magnetic beads, five washes, Western blot; some panels with or without 50 mM NaLa or KAT2A overexpression
T1 sequence: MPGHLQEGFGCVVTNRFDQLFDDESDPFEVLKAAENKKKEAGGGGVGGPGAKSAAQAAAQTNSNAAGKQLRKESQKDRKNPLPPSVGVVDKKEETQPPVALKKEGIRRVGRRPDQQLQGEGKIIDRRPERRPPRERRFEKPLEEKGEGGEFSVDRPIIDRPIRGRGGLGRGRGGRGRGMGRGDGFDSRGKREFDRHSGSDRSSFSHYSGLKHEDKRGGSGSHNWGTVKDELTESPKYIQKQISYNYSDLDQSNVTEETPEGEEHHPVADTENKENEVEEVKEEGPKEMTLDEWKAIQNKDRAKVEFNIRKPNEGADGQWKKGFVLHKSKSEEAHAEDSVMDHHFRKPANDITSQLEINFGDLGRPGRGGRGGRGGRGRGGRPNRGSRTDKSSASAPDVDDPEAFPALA

[2] = target: myc-RCC2 (wild-type RCC2) (human) (UniProt Q9P258); assay: as above

| binding [1] | binding [2] | Substance |
| --- | --- | --- |
| binds | – | myc-RCC2 (wild-type RCC2) (from UniProt Q9P258 1-522) |
| – | binds | KAT2A (exogenous) (from UniProt Q92830 1-837) (enzyme) |
